Consider 43 molecules from US20230203114A1.

No constants are given. Whether binding was seen depends on the method and setting. Binding can be weak; no strength is given.

To fix the notation:
B1: … (SEQ ID NO: 81) (peptide)
peptide: ALLSQQTHL
B2: … (SEQ ID NO: 100) (peptide)
peptide: SLDDFLATA
B3: … (SEQ ID NO: 89) (peptide)
peptide: SLIEYEFRV
B4: … (SEQ ID NO: 99) (peptide)
peptide: KLLEVDLDTV
B5: … (SEQ ID NO: 76) (peptide)
peptide: YLIGEKQHYL
B6: … (SEQ ID NO: 74) (peptide)
peptide: YLMGFLHAV
B7: … (SEQ ID NO: 102) (peptide)
peptide: KILVSLIEV
B8: … (SEQ ID NO: 86) (peptide)
peptide: KVFPGKISV
B9: … (SEQ ID NO: 98) (peptide)
peptide: AMNGKSFSV
B10: … (SEQ ID NO: 79) (peptide)
peptide: SLAADQLLKL
B11: … (SEQ ID NO: 87) (peptide)
peptide: LLFDAPDLRL
B12: … (SEQ ID NO: 63) (peptide)
peptide: KLFSILSTV
B13: … (SEQ ID NO: 101) (peptide)
peptide: GLSEGHTFQV
B14: … (SEQ ID NO: 82) (peptide)
peptide: QLYEEPDTKL
B15: … (SEQ ID NO: 92) (peptide)
peptide: WIDDTSAFV
B16: … (SEQ ID NO: 84) (peptide)
peptide: SMVEDITGLRL
B17: … (SEQ ID NO: 94) (peptide)
peptide: KSMDIVLTV
B18: … (SEQ ID NO: 69) (peptide)
peptide: GMLNEAEGKAIKL
B19: … (SEQ ID NO: 78) (peptide)
peptide: ALDPELLLL
B20: … (SEQ ID NO: 71) (peptide)
peptide: RLWTEIPTAI
B21: … (SEQ ID NO: 97) (peptide)
peptide: ALWWGVVTV
B22: … (SEQ ID NO: 72) (peptide)
peptide: YLLDYPNNLL
B23: … (SEQ ID NO: 75) (peptide)
peptide: EMIENIQSV
B24: … (SEQ ID NO: 103) (peptide)
peptide: FLFGYPKRL
B25: … (SEQ ID NO: 91) (peptide)
peptide: TVDVATPSV
B26: … (SEQ ID NO: 85) (peptide)
peptide: ILHDINSDGVL
B27: … (SEQ ID NO: 80) (peptide)
peptide: QVDEVVDIMRV
B28: … (SEQ ID NO: 67) (peptide)
peptide: SLNDLEKDVMLL
B29: … (SEQ ID NO: 64) (peptide)
peptide: KTLGKLWRL
B30: … (SEQ ID NO: 88) (peptide)
peptide: KLDIKVETV
B31: … (SEQ ID NO: 95) (peptide)
peptide: AILDAHIEV
B32: … (SEQ ID NO: 66) (peptide)
peptide: GLDDGPDFL
B33: … (SEQ ID NO: 90) (peptide)
peptide: GLLKPGLNVVL
B34: … (SEQ ID NO: 8) (peptide)
peptide: ALMLQGVDLL
B35: … (SEQ ID NO: 96) (peptide)
peptide: KLYSRLVYV
B36: … (SEQ ID NO: 70) (peptide)
peptide: MISELEVRL
B37: … (SEQ ID NO: 7) (peptide)
peptide: YLTRHLAVL
B38: … (SEQ ID NO: 77) (peptide)
peptide: SLLKRDFGA
B39: … (SEQ ID NO: 68) (peptide)
peptide: SILQFVHMV
B40: … (SEQ ID NO: 93) (peptide)
peptide: SLQELRLLL
B41: … (SEQ ID NO: 73) (peptide)
peptide: YLFDIAVSM
B42: … (SEQ ID NO: 83) (peptide)
peptide: LTIEDGIFEV
B43: … (SEQ ID NO: 9) (peptide)
peptide: ILDDHLSRV

This test deals with HLA-A*02:01 (human). As to the kind of experiment: UV-ligand exchange + anti-b2m ELISA; peptide exchange yield grade (+ >=10%, ++ >=20%, +++ >=50%, ++++ >=75%).
B1: the binding entry is given as “binds”.

B2: the binding entry was “binds”. The value for B3 was “binds”. In the case of B4, the binding entry is “binds”. Consider B5, for which the binding result is “binds”.

With B6, the binding result is listed as “binds”. For B7 the value was “binds”.

B8: the binding result is recorded as “binds”. The value for B9 was “binds”.

Turning to B10, the binding entry is given as “binds”. For B11 the value was “binds”. The value for B12 was “binds”; that for B13 was “binds”; that for B14 was “binds”. The value for B15 was “binds”; that for B16 was “binds”; that for B17 was “binds”. In the case of B18, the binding result is listed as “binds”. In the case of B19, the binding result is “binds”. The value for B20 was “binds”; that for B21 was “binds”. Consider B22, for which the binding entry was “binds”. The value for B23 was “binds”; that for B24 was “binds”; that for B25 was “binds”.

With B26, the binding result is “binds”.

As to B27, the binding result was “binds”. For B28 the value was “binds”; for B29, “binds”; for B30, “binds”.

On to B31, for which the binding result was “binds”. As for B32, the binding result is “binds”. Take B33: the binding entry is “binds”. Consider B34, for which the binding result is “binds”. For B35 the value was “binds”; for B36, “binds”; for B37, “binds”. The value for B38 was “binds”; that for B39 was “binds”; that for B40 was “binds”. The value for B41 was “binds”; that for B42 was “binds”; that for B43 was “binds”.
